The data set can be described thus: Circular dichroism (CD) of peptides in the presence of siRNA. The class given is physicochemical. Conditions: peptide:siRNA complexes R = 20, CPP 10 µM, siRNA 0.5 µM. On the technique in general: Circular dichroism is the unequal absorption of left and right circularly polarised light.

“LWRLWRLLWRLWRLL [W1-2L, Δ L analogue of W1]”: the “Helix (CD), helix signal in CD measurements” value (“Helix (CD), helix signal” below) is “YES”.

Take LLRLLRWWWRLLRLL [W5]: the “Helix (CD), helix signal” value was “YES”. As to “RLLRLLWWWLLRLLR [W5-4R, R analogue of W5]”, the “Helix (CD), helix signal” value is reported as “YES”. As for LLWRLWRLLWRLWRLL [W1], the “Helix (CD), helix signal” value was “YES”.

Consider “RLLRLLRWWWRLLRLLR [W5-6R, R analogue of W5]”, for which the “Helix (CD), helix signal” value was “YES”. In the case of “RLLWRLWRLLWRLWRLLR [W1-6R, R analogue of W1]”, the “Helix (CD), helix signal” value is reported as “YES”. In the case of “LLWRLWRLWRLWRLL [W1-Lm, Δ L analogue of W1]” it was “YES”. In the case of “LLRLWWRLLRWWLRLL [W1-Mix, W-mix analogue of W1]” it was “YES”. In the case of RLLWRLWLWRLLR [W1-4R, R analogue of W1] it was “YES”.

The record behind these values is article PMC8359084, “WRAP-based nanoparticles for siRNA delivery: a SAR study and a comparison with lipid-based transfection reagents” (Journal of Nanobiotechnology, 2021).
